Publication PMC12040169 (PLOS Biology, 2025)
Some of the results follow.

Each molecule was assayed on T1, CTL2-GFP (C. trachomatis L2/434/Bu, GFP-expressing). Settings: bulk GFP, single well; 28.5 h, 10 µM; inhibitor.
T1 construct: L2/434/Bu, GFP-expressing
Design: species or system HeLa; Intracellular C. trachomatis growth in HeLa cells, bulk GFP fluorescence relative to DMSO
`C=CCNS(=O)(=O)c1ccc(NC(=O)Nc2ccc(Cl)cc2)cc1` [CBK269315] was tested, and the “% of control remaining” value was 85.2439%.
With `COc1ncccc1-c1csc(C2CN3CCCC3CO2)n1` (centres unmarked) [CBK304110] the “% of control remaining” value was 133.238%.
`Cc1ccccc1C(=O)Nc1cccc(NC(=O)c2nc[nH]n2)c1` [CBK267108] was tested, and the “% of control remaining” value was 186.675%.
`CNC(=O)c1ccc(-c2cc(OC)c(OC)c(OC)c2)nc1NCC1CC1` [CBK106312] was tested, and the “% of control remaining” value was 109.422%.
In the case of `Nc1cccc(-c2ccc(NCc3cc(F)c(F)c(F)c3)nc2)c1` [CBK036985], the “% of control remaining” value is reported as 117.557%.
With `O=C(O)c1ccc(NC(=O)c2ncn(-c3ccccc3)n2)cc1` [CBK269445] the “% of control remaining” value was 126.647%.
For `COc1ccc(-c2cnc3[nH]c(=O)n([C@H](C)c4ccccc4)c3n2)c(OC)c1OC` [CBK064236], the “% of control remaining” value was 122.59%.
For `CCOC(=O)Cc1csc(NS(=O)(=O)c2ccc(OC(F)(F)F)cc2)n1` [CBK000852], the “% of control remaining” value was 87.8397%.
`O=C(Nc1cccc(NC(=S)NC(=O)c2ccc(Cl)cc2Cl)c1)c1ccccc1F` [CBK264828] was tested, and the “% of control remaining” value was 109.629%.
For `O=C(COc1ccc(S(=O)(=O)N2CCCCC2)cc1Cl)NCc1ccccn1` [CBK269253], the “% of control remaining” value was 140.593%.
For `FC(F)(F)c1cccc(-c2cn3ccnc3c(NCc3ccncc3)n2)c1` [CBK066632], the “% of control remaining” value was 87.7054%.
In the case of `N/C(=N\OCC(=O)Nc1cccc([N+](=O)[O-])c1)c1nonc1N` [CBK262044], the “% of control remaining” value is reported as 107.27%.
`CCN(CC)CC(c1ccccc1)C(O)c1ccc(OC)cc1` (centres unmarked) [CBK262074C] was tested, and the “% of control remaining” value was 110.293%.
With `COc1ccc(NC(=O)CN2CCN(c3ccccc3OC)CC2)c([N+](=O)[O-])c1` [CBK269188] the “% of control remaining” value was 100.554%.
In the case of `O=C(O)CC(CP(c1ccccc1)c1ccccc1)C(=O)O` (centres unmarked) [CBK260931], the “% of control remaining” value is reported as 115.841%.
`Cc1ccc(OCc2occc2C(=O)N2CCC(O)(CN(C)C)C2)cc1` (centres unmarked) [CBK307341] was tested, and the “% of control remaining” value was 135.899%.
In the case of `Cc1ccc(S(=O)(=O)N2CC[C@H](c3nnc(-c4ccccc4)o3)C2)cc1` [CBK289405], the “% of control remaining” value is reported as 126.459%.
In the case of `CCOC(=O)CN1CCN(S(=O)(=O)c2cc(Cl)ccc2Cl)CC1` [CBK044628], the “% of control remaining” value is reported as 147.356%.
With `Cc1cc(=O)nc(SC(C)C(=O)O)[nH]1` (centres unmarked) [CBK264630] the “% of control remaining” value was 100%.
`Cc1cnn(CCC(=O)N2CCOC(c3nc(C(C)(C)C)n[nH]3)C2)c1` (centres unmarked) [CBK305336] was tested, and the “% of control remaining” value was 109.803%.
With `C(=N\Nc1nnc(-c2ccccc2)c(-c2ccccc2)n1)/c1cccnc1` [CBK262025] the “% of control remaining” value was 130.609%.
In the case of `CCCCCC1CC(CC(=O)NC(=S)Nc2ccccc2Cl)C(=O)O1` (centres unmarked) [CBK019495], the “% of control remaining” value is reported as 112.955%.
In the case of `O=C(NCCc1cccs1)NC1CCCc2c1cnn2CCO` (centres unmarked) [CBK306324], the “% of control remaining” value is reported as 130.181%.
With `CN1CCN(c2ccc(NC(=S)NC(=O)c3cc4ccccc4o3)cc2)CC1` [CBK266240] the “% of control remaining” value was 181.877%.
In the case of `CN(Cc1ccc(N2CCCCC2)cc1)S(=O)(=O)c1ccsc1C(=O)O` [CBK295333], the “% of control remaining” value is reported as 159.611%.
In the case of `Cc1ccc(CN(CC(=O)N2CCCCC2)S(=O)(=O)c2ccc(C)cc2)cc1` [CBK264646], the “% of control remaining” value is reported as 100%.
With `Cc1nn(C)c(C)c1CC(=O)Nc1cccc(CN2CCCCC2)c1` [CBK304547] the “% of control remaining” value was 83.6789%.
With `FC(F)(F)c1ccc(OCCOc2ccccc2)nc1` [CBK115829] the “% of control remaining” value was 125.66%.
In the case of `C/C(=C\C(=O)Nc1ccc(O)cc1C(=O)O)c1ccccc1` [CBK265125], the “% of control remaining” value is reported as 98.7535%.
`O=C(c1ccccc1F)N1CCC(O)(c2ccc(F)cc2)CC1` [CBK281943] was tested, and the “% of control remaining” value was 160.455%.
In the case of `O=C1N(CN2CCN(C(c3ccccc3)c3ccccc3)CC2)c2ccccc2C12OCCCO2` [CBK265538], the “% of control remaining” value is reported as 100%.
In the case of `CCCc1[nH]nc(O)c1CCc1c(F)cccc1Cl` [CBK081121], the “% of control remaining” value is reported as 137.937%.
`O=C1CO[C@H]2CN(S(=O)(=O)c3ccccc3)C[C@H]2N1c1ccccc1` [CBK289236] was tested, and the “% of control remaining” value was 131.91%.
For `COc1ccc(C)cc1NC(=O)CCN1CCN(C)CC1` [CBK264216], the “% of control remaining” value was 130.942%.
For `NCCNC(=O)c1cc2cc(F)ccc2[nH]1` [CBK107345], the “% of control remaining” value was 114.53%.
In the case of `Oc1ccc(/C=N/N=C/c2ccc(O)c(O)c2)cc1O` [CBK261641], the “% of control remaining” value is reported as 97.1557%.
For `Cc1ccc(C(=O)NCCCc2ccc(Cl)cc2)c(=O)n1C` [CBK281567], the “% of control remaining” value was 127.131%.
In the case of `O=C(O)CCCC(=O)Nc1ccccc1Br` [CBK261322], the “% of control remaining” value is reported as 103.645%.
With `Cc1ccc(C)c(C2CCCN2C(=O)c2ccc(=O)n(CC(=O)N(C)c3ccccc3)c2)c1` (centres unmarked) [CBK285654] the “% of control remaining” value was 108.372%.
For `O=C(NCc1ccccn1)c1ccc(CNS(=O)(=O)c2cccc(C(F)(F)F)c2)cc1` [CBK267291], the “% of control remaining” value was 149.983%.
With `O=C(c1ccc2c(c1)ncn2CCO)N1CCC(c2ccccc2F)C1` (centres unmarked) [CBK307075] the “% of control remaining” value was 121.49%.
In the case of `C[S+]([O-])CCNC(=O)Cn1c(-c2cccs2)cc2cccnc21` (centres unmarked) [CBK282556], the “% of control remaining” value is reported as 111.557%.
In the case of `CN1CCN(c2nccnc2OCC2COc3ccccc3O2)CC1` (centres unmarked) [CBK003899C], the “% of control remaining” value is reported as 129.684%.
With `Cc1ccc2[nH]c(=O)c(CNc3ccc4[nH]ncc4c3)cc2c1` [CBK281936] the “% of control remaining” value was 135.91%.
In the case of `CC(C)c1ccc(S(=O)(=O)NCCC#N)cc1` [CBK044722], the “% of control remaining” value is reported as 83.2771%.
With `O=C(CN1C(=O)CSc2ccccc21)Nc1ccccc1C(=O)N1CCOCC1` [CBK267343] the “% of control remaining” value was 133.147%.
In the case of `O=C(NCc1cccs1)c1ccccc1-n1cccc1` [CBK149584], the “% of control remaining” value is reported as 104.269%.
`Cc1cc(C)nc(Nc2n[nH]c(-c3ccccc3Cl)n2)n1` [CBK288167] was tested, and the “% of control remaining” value was 117.573%.
With `OCCCNC(=S)Nc1ccc(Br)cc1Cl` [CBK086487] the “% of control remaining” value was 123.795%.
In the case of `O=C(Cc1c[nH]c2ccccc12)N1CCC2(CCCN(C(=O)c3c(F)cccc3F)C2)C1` (centres unmarked) [CBK131605], the “% of control remaining” value is reported as 106.992%.
`O=C(Nc1ccccc1)[C@H]1O[C@H](CCN2CCN(c3ccccc3)CC2)CC[C@@H]1O` [CBK288725] was tested, and the “% of control remaining” value was 119.63%.
`CS(=O)(=O)c1ccc(-c2cnc3nc(N)ccc3c2)cc1` [CBK061916] was tested, and the “% of control remaining” value was 106.523%.
With `Cc1ccc(-c2n[nH]c(=S)n2CC(=O)N(C)Cc2ccc(N3CCOCC3)cc2)cc1` [CBK297908] the “% of control remaining” value was 164.601%.
In the case of `Nc1nonc1OCCCCOc1nonc1N` [CBK027716], the “% of control remaining” value is reported as 105.043%.
With `Cc1nnc(SCCN2CCOC2=O)n1CCc1cccs1` [CBK304029] the “% of control remaining” value was 145.152%.
In the case of `COc1ccc(-c2csc(Nc3ccc(S(=O)(=O)Nc4cc(C)on4)cc3)n2)cc1OC` [CBK261797B], the “% of control remaining” value is reported as 94.1394%.
`Cc1nc2cc(-c3nccn3C)nn2c(N2CCN(c3ccc(O)cc3)CC2)c1C` [CBK286427] was tested, and the “% of control remaining” value was 123.226%.
In the case of `Clc1cccc(CN2CCC(N3CCN(c4ccccc4)CC3)CC2)c1` [CBK264690G], the “% of control remaining” value is reported as 100%.
In the case of `O=C(CSCc1ccccc1Cl)NNC(=O)c1cccnc1` [CBK267826], the “% of control remaining” value is reported as 83.5502%.
`O=C(NC1CCCCC1)N1CC[C@H](c2nc3ccccc3o2)C1` [CBK289372] was tested, and the “% of control remaining” value was 115.236%.
In the case of `Cc1nc(-c2ccc(NCCc3nc(C4CC4)cs3)nc2)[nH]c(=O)c1C` [CBK304424], the “% of control remaining” value is reported as 77.2511%.
With `CCc1cccc(-n2nc(C)c3c2NC(=O)CC3C(=O)c2ccc(CC)s2)c1` (centres unmarked) [CBK294435] the “% of control remaining” value was 98.2707%.
For `Cc1ccc(-c2nnc(SCC(=O)Nc3ccc(N4CCOCC4)cc3)n2C)cc1` [CBK270247], the “% of control remaining” value was 137.422%.
In the case of `CCn1nccc1N1CCCC(NC(=O)CCc2ccccc2Cl)C1=O` (centres unmarked) [CBK305455], the “% of control remaining” value is reported as 81.9846%.
In the case of `COC(=O)CC(C)(C)/C(C)=N/NS(=O)(=O)c1ccc(C)cc1` [CBK263602], the “% of control remaining” value is reported as 130.1%.
With `Nc1nonc1-c1nc2ccccc2n1Cc1ccc(-c2nn[nH]n2)cc1` [CBK267648] the “% of control remaining” value was 109.709%.
`COc1cccc(CN2CCN(C(=O)c3cc(C)[nH]c3C)[C@@H](C)C2)c1` [CBK284255] was tested, and the “% of control remaining” value was 128.425%.
With `COc1ccc(Nc2ccc(-c3cccc(OC(F)(F)F)c3)cn2)cn1` [CBK037022] the “% of control remaining” value was 191.441%.
For `COc1ccc(Cl)cc1NC(=O)NC(=O)C1CCN(CCOc2cccc3ccccc23)CC1` [CBK035116], the “% of control remaining” value was 100.468%.
In the case of `COC1CCCC(C(=O)N2CCC(c3onc4c3CCCC4)CC2)C1` (centres unmarked) [CBK284598], the “% of control remaining” value is reported as 107.505%.
With `Cn1cc(C(=O)NCC(c2ccccc2F)N2CCCC2)ccc1=O` (centres unmarked) [CBK281950] the “% of control remaining” value was 161.866%.
`COCc1ccc(C(=O)N2CCN3C(=O)CCC32C)o1` (centres unmarked) [CBK282091] was tested, and the “% of control remaining” value was 123.74%.
In the case of `CN1CCN(C(=O)CSc2nc(-c3cccs3)cc(C(F)(F)F)n2)CC1` [CBK307372], the “% of control remaining” value is reported as 196.304%.
For `Nc1ccc(-c2cncc(NCc3ccccc3)n2)cc1` [CBK065578], the “% of control remaining” value was 88.2392%.
In the case of `CN(C)S(=O)(=O)N1CCC(Cc2ccccc2)CC1` [CBK263768], the “% of control remaining” value is reported as 100.041%.
For `CN(C)CCCNc1c(N)c(=O)oc2ccccc12` [CBK261468], the “% of control remaining” value was 98.3471%.
With `Cc1cc(C)n(C2CCN(Cc3cn(C)c4cc(F)ccc34)CC2)n1` [CBK281806] the “% of control remaining” value was 136.17%.
With `Cc1cccn2c(CN3CCCOCC3)c(C(=O)N3CCOCC3)nc12` [CBK307144] the “% of control remaining” value was 105.78%.
`COc1ccc2c(-c3cc(N)sn3)c(C)oc2c1` [CBK022260] was tested, and the “% of control remaining” value was 139.173%.
`O=C(O)c1cccc(-n2cc(-c3cccc(C(F)(F)F)c3)nn2)c1` [CBK112949] was tested, and the “% of control remaining” value was 211.458%.
